The record followed here is patent US5721207A, “Method for treatment of pain” (Innapharma, Inc., priority 1995, dated 1998).

Bounds are passed on as bounds.

In this assay the test system is rat. The conditions noted are these: intrathecal.

Regarding `CN1CC[C@]23c4c5ccc(O)c4O[C@H]2[C@@H](O)C=C[C@H]3[C@H]1C5.O=S(=O)(O)O` [Morphine, Morphine sulfate], the “duration of analgesia, elcatonin compared with morphine” value was “appeared to be shorter than for elcatonin”. Besides, the “time by which reduced potency is apparent” value (post-injection) is ≤ 3 h.
